From PubChem BioAssay AID1347076 (National Center for Advancing Translational Sciences (NCATS), 2019)
About 13,000 (3.2%) of roughly 400,000 compounds were called active. Inconclusive means that the source gave no clear call. Such entries were picked first, then a sample of the others. The call rests on the fitted dose curve; in most records, active means well fitted cell-killing curve with a large enough effect; inconclusive means small, poorly fitted or top-dose-only effect, or effect the other way; inactive means flat fitted curve, though single readings scatter. Where the call is inconclusive, the potency comes from a doubtful curve fit.

Test: qHTS assay for MDR1-selective chemotherapeutics: Primary screen using the drug-selected MDR subline cells KB-V1; further: nearly all actives have a fitted effect of over 60% in size
Details: KB-V1 MDR cells viability, CellTiter-Glo, 72 h; activity change, negative = cytotoxicity: at 46.1 µM (top of the series)
Summary of the method: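 Compound-treated KB-V1 multidrug-resistant cells, 72 h, 37 degrees C; viability by CellTiter-Glo. Fitted qHTS curves give the values.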
On the % scale 0 is the no-effect control and ±100 the full control effect; potency means the concentration at half of the fitted maximal effect.

Structure (SMILES)	Potency	activity change, negative = cytotoxicity
CSc1ccccc1OCc1cc(C(=O)N2CCN(C3CCCC3)C(=O)C2)no1	active: 14.6 µM	
COc1ccc(OC)c(C(=O)COC(=O)C(CCSC)NC(=O)COc2ccccc2)c1 (configuration not stated)	inactive	
O=c1[nH]c2ccccc2nc1N1CCOCC1	inactive	
Cc1ccc(C)c(N2CCN(C(=O)Cn3ncc4ccsc4c3=O)CC2)c1	active: 4.11 µM	
COc1ccc(C(=O)c2ccccc2)c2c(O)ccc(C(=O)c3ccccc3)c12	inconclusive: 5.8 µM [cytotoxic, partial curve, poor fit]	
O=C(O)c1cc(S(=O)(=O)Nc2cc(Cl)ccc2Oc2ccccc2)ccc1O	inconclusive: 29.1 µM [rising, single point]	
CC(=O)N1CCCC1c1nc2ccccc2n1Cc1ccccc1 (configuration not stated)	inactive	
CCc1nc2c(OCc3ccc(F)c(F)c3)cccn2c1N(C)C(=O)c1ccc(C)cc1	inconclusive: 29.1 µM [cytotoxic, single point]	
COc1ccc(CSC(=S)NNc2ccccc2)cc1	inactive	
CC1Cc2ccccc2N1C(=O)COc1cccc(-n2cnnn2)c1 (configuration not stated)	inactive	
O=S1(=O)CCOC[C@H](Cc2ccccc2)N1Cc1cccc(C(F)(F)F)c1	inconclusive: 25.9 µM [cytotoxic, single point]	
COc1ccc2nc(NCCO)[nH]c2c1	inactive	
Cc1ccc2nc(-c3ccccc3)cc(C(=O)Nc3cccnc3)c2c1	active: 2.91 µM	
Cc1nc(C)c(C(=O)OCC(=O)N2CCN(c3ccccc3)CC2)s1	inconclusive: 20.6 µM [cytotoxic, single point]	
COc1ccc(-n2c(N)c(-c3nc4ccccc4n3C)sc2=S)cc1	inactive	
CCOC(=O)c1ccc(NC(=O)c2oc(=O)c3ccccc3c2-c2ccccc2)cc1	inconclusive: 25.9 µM [rising, partial curve, poor fit]	
CCCn1c(=O)[nH]c(=O)c2c1nc(-c1ccccc1OC(F)F)n2CCOC	active: 18.4 µM	
COCCNC(=S)NCc1ccc2[nH]c3c(c2c1)CCCC3	inconclusive: 18.4 µM [cytotoxic, single point]	
CCOc1ccccc1NC(=O)Cn1c(=O)n(-c2ccccc2)c(=O)c2oc3ccccc3c21	inconclusive: 2.31 µM [cytotoxic, full curve]	
CC(C)(C)c1ccc(OCCCN2CCCC2)cc1	inactive	
Cc1onc(-c2ccccc2)c1C(=O)N1CCCN(C(=O)c2c(-c3ccccc3)noc2C)CC1	inconclusive: 8.2 µM [cytotoxic, partial curve]	
O=C(NCc1ccccc1Cl)C1CCN(c2cnccn2)CC1	inactive	
O=C(OCCOc1cccc(Cl)c1)c1cc(S(=O)(=O)N2CCCCC2)ccc1N1CCOCC1	inconclusive: 23.1 µM [cytotoxic, single point]	
COc1ccccc1-c1cc(C(=O)Nc2ccc(F)cc2F)no1	inactive	

Arranged by number of heavy atoms (smallest number first): some entries from above.
Structure (SMILES)	Potency	activity change, negative = cytotoxicity
O=S1(=O)CCOC[C@H](Cc2ccccc2)N1Cc1cccc(C(F)(F)F)c1	inconclusive: 25.9 µM [cytotoxic, single point]	
CCCn1c(=O)[nH]c(=O)c2c1nc(-c1ccccc1OC(F)F)n2CCOC	active: 18.4 µM	
COc1ccc(C(=O)c2ccccc2)c2c(O)ccc(C(=O)c3ccccc3)c12	inconclusive: 5.8 µM [cytotoxic, partial curve, poor fit]	

The listing continues.

Structure (SMILES)	Potency	activity change, negative = cytotoxicity
O=C(Cc1cc(=O)[nH][nH]1)N/N=C/c1cccc(Cl)c1Cl		inconclusive: -72.1%
CCOC(=O)C1CCN(CC(=O)Nc2ccc(OC)c(S(=O)(=O)N3CCCCC3)c2)CC1	inconclusive: 32.6 µM [cytotoxic, single point]	
CC[C@@H](C)[C@H](NC(=O)OC(C)(C)C)c1nnc(S(=O)(=O)Cc2cc(C)ccc2C)o1	inconclusive: 23.1 µM [cytotoxic, single point]	
FC(F)(F)c1cccc(Cc2noc(CN3CCCC(OCc4ccccn4)C3)n2)c1 (configuration not stated)	inconclusive: 9.2 µM [cytotoxic, partial curve]	
O=C(/C=C/c1cccc(Br)c1)N1CCN(c2cccc(C(F)(F)F)c2)CC1	inconclusive: 29.1 µM [cytotoxic, single point]	
CCc1cc(C(=O)Nc2cc(Cl)ccc2N2CCN(C)CC2)sc1C	inactive	
Cc1nc2ccccn2c1/C(O)=C1\C(=O)C(=O)N(CCN2CCOCC2)C1c1cccs1 (configuration not stated)	inactive	
Cc1ccc(SCCN2CCN(CCc3ccccc3)CCC2=O)cc1	inactive	
COc1cccc(NC(=O)C(c2ccccc2)N2CCCC2)c1 (configuration not stated)	inconclusive: 10.3 µM [cytotoxic, partial curve, poor fit]	
CCc1cccc(NC(=O)C(Cc2ccccc2)NS(=O)(=O)c2ccc3c(c2)oc(=O)n3C)c1 (configuration not stated)	inactive	
CC(C)=C(NC(=O)c1ccccc1Br)C(=O)NCCc1nc2ccccc2[nH]1	inactive	
CCOC(=O)c1c(NC(=O)c2cc3nc(-c4ccc(OC)cc4)cc(C(F)(F)F)n3n2)sc2c1CCC(C)C2 (configuration not stated)	inactive	
C/C=C(\C)C(=O)NCCN1C2=NC[C@H](C(C)C)N2C[C@@H]1Cc1ccc(OC)cc1		inconclusive: 16.7%
CCc1nc2oc3ccccc3c(=O)c2c(=O)n1-c1ccccc1	active: 14.6 µM	
O=S(=O)(NC1CCCCC1)c1cccc(-c2nnc(-c3ccccc3)o2)c1	inconclusive: 16.4 µM [cytotoxic, partial curve]	
COc1cc(C2C=C(c3cccs3)Nc3ncnn32)cc(OC)c1OC (configuration not stated)	active: 3.66 µM	
CC(C)N(Cc1nc(-c2ccc3c(c2)OCO3)no1)Cc1nccn1C	inconclusive: 18.4 µM [cytotoxic, partial curve]	
CCCN1C2CCCC1CC(NC(=O)c1ccc(F)cc1)C2 (configuration not stated)	inconclusive: 29.1 µM [cytotoxic, single point]	
Nc1c(N(CCCO)C(=O)C2CCCC2)c(=O)[nH]c(=O)n1Cc1ccccc1	inconclusive: 32.6 µM [rising, single point]	
O=c1[nH]c(-c2ccco2)nc2sc3c(c12)CCCC3	active: 18.4 µM	
O=C(COC(=O)COc1ccc(Cl)cc1)NC1CC1	inactive	
COc1ccc(N(CC(=O)NC2CCCCC2)C(=O)CNC(=O)c2ccco2)cc1	inactive	
O=C(CSc1nnnn1-c1cccc(O)c1)NC1CC1		inconclusive: 26.2%
CC(=O)c1cccc(NC(=O)Cn2cnc(S(=O)(=O)N3CCc4ccccc43)c2)c1	inconclusive: 5.17 µM [rising, full curve, poor fit]	

Structure (SMILES)	Potency	activity change, negative = cytotoxicity
Cc1ccc(C)c(COc2coc(CN3CCN(C(=O)c4ccco4)CC3)cc2=O)c1	inconclusive: 4.11 µM [cytotoxic, partial curve, poor fit]	
CCC(=O)N1N=C(c2ccc(C)cc2)CC1c1ccco1 (configuration not stated)	inactive	
COc1ccc(-c2c[n+]3c(n2-c2ccc(C)cc2)CCCCC3)cc1	inconclusive: 2.31 µM [rising, partial curve, poor fit]	
O=C(Nc1ccccc1C(=O)N/N=C/c1ccco1)c1ccccc1Cl	inconclusive: 23.1 µM [cytotoxic, single point]	
Cc1cccc(NC(=O)c2sc(-n3nc(C)c(Cc4ccc5c(c4)OCO5)c3C)nc2C)c1C	inconclusive: 29.1 µM [cytotoxic, partial curve, poor fit]	
CCc1ccc(NC(=O)Cn2nnc(C(=O)NCc3ccc4c(c3)OCO4)c2N)cc1		inconclusive: -6.29%
O=C(/C=C\c1cn(-c2ccccc2)nc1-c1ccc2c(c1)OCCO2)N1CCOCC1	inconclusive: 25.9 µM [cytotoxic, single point]	
COC(=O)c1cc(O)cc(OC)c1C(=O)c1c(O)cc(C)cc1O	inactive	
Cc1ccc(N(C)S(=O)(=O)c2cccc(C(=O)Nc3nc4ccccc4[nH]3)c2)cc1	active: 2.31 µM	
CC(C)CN1C(=O)C(=O)N(CC(=O)N(C)CC(=O)Nc2ccc(Cl)c(C(F)(F)F)c2)C1=O	inconclusive: 20.6 µM [rising, single point]	
O=C(COC(=O)CNC(=O)c1ccc(Cl)cc1)Nc1ncc(C(F)(F)F)cc1Cl	inconclusive: 2.06 µM [rising, full curve]	
CCCCc1nc(NCCNC(=O)c2ccccc2)c(C#N)c2c1CSC(C)(C)C2	inconclusive: 10.3 µM [cytotoxic, partial curve, poor fit]	
C=CCn1nc([N+](=O)[O-])nc1Sc1cccc2cccnc12	active: 8.2 µM	
COc1ccc(CN2CCc3nc(SCC(=O)Nc4cc(C)cc(C)c4)[nH]c(=O)c3C2)cc1	inconclusive: 29.1 µM [rising, single point]	
COc1ccccc1C#CC1=CC(=O)CC(C)(C)C1	inconclusive: 16.4 µM [cytotoxic, single point]	
COc1ccc(-c2noc(Cn3c(=O)c4ccccc4n(CC(=O)Nc4cccc(OC)c4)c3=O)n2)cc1	inactive	
Cc1ccc2oc(=O)c(-c3ccc(O)cc3)c(C)c2c1	inconclusive: 20.6 µM [cytotoxic, single point]	
O=C(O)C1=C[C@@H](c2ccc(F)cc2)C[C@@H](OCCCCO)O1	inconclusive: 5.8 µM [rising, full curve]	
CCCOC(=O)CSc1ncnc2sc3c(c12)CCC(C)C3 (configuration not stated)	inconclusive: 29.1 µM [rising, single point]	
C=CCSc1nc2ccccc2n1Cc1nnc(-c2cccs2)o1	active: 6.51 µM	
Cc1nc(SCC(=O)Nc2ccc(Cl)cc2[N+](=O)[O-])nc(C)c1C	inconclusive: 23.1 µM [cytotoxic, single point]	
O=C(CN1C(=O)CCOc2ccccc21)Nc1cccc(S(=O)(=O)N2CCOCC2)c1	inconclusive: 23.1 µM [cytotoxic, partial curve, poor fit]	
CNc1c2cccc(C)c2nc2c(C(=O)NCCN(C)C)cccc12	inconclusive: 3.66 µM [cytotoxic, partial curve, poor fit]	
COc1ccccc1NC(=O)c1sc2nc(N3CCOCC3)c3c(c2c1N)CC(C)(C)OC3	inactive	
